From publication PMC12412578
These are yes or no findings as the source states them, for the method shown. Binding seen in cells or lysates may run through a third protein. Some results given as binding are weak or reduced against the parent protein; the word gives no strength.

Protein sequences, listed by entry. Tags and fused reporters are not part of them.
UniProt Q9BPZ7: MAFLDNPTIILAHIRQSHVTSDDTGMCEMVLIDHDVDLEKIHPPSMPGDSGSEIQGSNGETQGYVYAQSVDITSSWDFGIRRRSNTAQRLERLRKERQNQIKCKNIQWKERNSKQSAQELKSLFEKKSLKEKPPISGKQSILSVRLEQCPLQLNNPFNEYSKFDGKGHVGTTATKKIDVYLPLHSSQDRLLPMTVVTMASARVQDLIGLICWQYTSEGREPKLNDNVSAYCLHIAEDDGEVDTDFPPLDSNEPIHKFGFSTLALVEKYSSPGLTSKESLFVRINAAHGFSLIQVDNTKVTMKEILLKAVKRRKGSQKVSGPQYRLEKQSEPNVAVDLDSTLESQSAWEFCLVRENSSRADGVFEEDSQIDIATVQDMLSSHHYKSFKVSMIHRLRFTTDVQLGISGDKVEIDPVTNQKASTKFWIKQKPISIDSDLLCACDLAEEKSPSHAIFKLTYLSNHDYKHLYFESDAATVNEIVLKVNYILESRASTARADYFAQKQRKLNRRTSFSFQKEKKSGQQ
UniProt P31749: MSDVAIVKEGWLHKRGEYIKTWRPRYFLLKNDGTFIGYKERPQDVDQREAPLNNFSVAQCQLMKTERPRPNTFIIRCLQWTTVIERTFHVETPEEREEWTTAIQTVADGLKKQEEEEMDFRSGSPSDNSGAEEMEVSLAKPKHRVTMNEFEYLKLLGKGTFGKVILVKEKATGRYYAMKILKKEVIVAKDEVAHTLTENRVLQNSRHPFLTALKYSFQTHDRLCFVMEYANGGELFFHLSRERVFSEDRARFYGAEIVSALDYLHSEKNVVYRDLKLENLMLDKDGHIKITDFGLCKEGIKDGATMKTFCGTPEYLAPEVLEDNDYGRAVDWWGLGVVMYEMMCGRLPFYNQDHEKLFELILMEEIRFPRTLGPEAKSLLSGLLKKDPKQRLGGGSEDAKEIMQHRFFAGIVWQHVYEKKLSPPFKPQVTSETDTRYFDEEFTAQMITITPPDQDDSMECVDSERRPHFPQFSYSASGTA

Molecular target: Flag-SIN1 (UniProt Q9BPZ7)
Test: co-IP; HEK293T transfected with HA-AKT and Flag-SIN1; starved in amino acid-free medium 1 h, then 50 µM ZnSO4 1 h, alone or with histidine; also PRMT5 WT or knock-down cells; lysate on anti-Flag M2 magnetic beads 4-6 h, immunoblot

HA-AKT (from UniProt P31749 1-480)
binding: binds
